Results are given in words; binding and its absence hold for the method and conditions named. In cells and extracts the contact can be indirect. Some entries that bind do so weakly or less than the wild type. Sequences can lack the tags named with a protein.
Key:
[1] = biological target: T1, FLAG-MARCH8 (Membrane-Associated RING-CH 8) (human) (UniProt Q5T0T0); test: co-IP; HeLa cells, MARCH8 with endogenous IFITM3; IP lysis buffer, antibody-conjugated agarose beads, 4 °C, 2 h; Western blot
T1 sequence: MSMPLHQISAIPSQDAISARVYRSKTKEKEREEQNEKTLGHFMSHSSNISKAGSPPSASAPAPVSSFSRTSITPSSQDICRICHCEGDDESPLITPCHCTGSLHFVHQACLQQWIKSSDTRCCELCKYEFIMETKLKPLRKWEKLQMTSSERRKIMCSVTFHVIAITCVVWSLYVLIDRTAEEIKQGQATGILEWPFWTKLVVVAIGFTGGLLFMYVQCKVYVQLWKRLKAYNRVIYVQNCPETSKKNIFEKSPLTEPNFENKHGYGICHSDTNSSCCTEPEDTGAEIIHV

Protein sequences, listed by entry. Tags and fused reporters are not part of them. Lines headed by an entry give the natural chain unless they say otherwise; changes in a name come on top. Chains listed by the source or under a name are the forms on record and can include a tag or linker.
UniProt Q01628: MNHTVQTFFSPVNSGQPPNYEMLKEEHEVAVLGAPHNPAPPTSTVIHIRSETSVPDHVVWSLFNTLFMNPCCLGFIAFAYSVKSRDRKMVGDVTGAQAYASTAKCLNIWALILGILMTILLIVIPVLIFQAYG
FLAG-IFITM3 mutant lacking the N-terminal amino acids 21 to 57 (Q01628, form named): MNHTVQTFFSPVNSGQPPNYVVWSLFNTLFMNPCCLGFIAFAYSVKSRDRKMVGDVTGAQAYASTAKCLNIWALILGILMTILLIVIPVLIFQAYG

[2] = biological target: T2, full-length MARCH8-Myc (human) (UniProt Q5T0T0); test: co-IP; HEK293T cells cotransfected with MARCH8 and IFITM3 (full length or truncation mutants); IP lysis buffer (50 mM Tris-HCl pH 7.5, 150 mM NaCl, 0.2% Triton X-100, 10% glycerol), antibody-conjugated agarose beads, 4 °C, 2 h; Western blot
T2 sequence: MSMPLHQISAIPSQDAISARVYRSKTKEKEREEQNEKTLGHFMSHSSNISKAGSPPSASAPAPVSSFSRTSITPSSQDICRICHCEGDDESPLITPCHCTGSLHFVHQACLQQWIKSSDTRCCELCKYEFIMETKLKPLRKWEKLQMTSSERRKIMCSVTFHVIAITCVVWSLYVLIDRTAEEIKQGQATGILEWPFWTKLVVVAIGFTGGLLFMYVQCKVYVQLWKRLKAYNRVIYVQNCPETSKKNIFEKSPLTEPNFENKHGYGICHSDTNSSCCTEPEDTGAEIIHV

[3] = biological target: FLAG-IFITM3 mutant lacking the N-terminal amino acids 21 to 57 (human) (UniProt Q01628); test: as above
[4] = biological target: full-length FLAG-IFITM3 (human) (UniProt Q01628); test: as above
[5] = biological target: IFITM3 BiFC fusion (human) (UniProt Q01628); test: split reporter; BiFC: HeLa cells cotransfected with pBiFC-HA-VC155 and pBiFC-FLAG-VN173 constructs, 24 h, confocal imaging

For “interferon-induced transmembrane protein 3 (IFITM3), endogenous (from UniProt Q01628 1-133)”, which binding [1] is on record?
The binding was “binds”.

With “full-length FLAG-IFITM3 (from UniProt Q01628 1-133)” as the molecule, how does the binding [2] read?
The binding was “binds”.

B1: full-length MARCH8-Myc (enzyme, UniProt Q5T0T0 1-291)
chain: MSMPLHQISAIPSQDAISARVYRSKTKEKEREEQNEKTLGHFMSHSSNISKAGSPPSASAPAPVSSFSRTSITPSSQDICRICHCEGDDESPLITPCHCTGSLHFVHQACLQQWIKSSDTRCCELCKYEFIMETKLKPLRKWEKLQMTSSERRKIMCSVTFHVIAITCVVWSLYVLIDRTAEEIKQGQATGILEWPFWTKLVVVAIGFTGGLLFMYVQCKVYVQLWKRLKAYNRVIYVQNCPETSKKNIFEKSPLTEPNFENKHGYGICHSDTNSSCCTEPEDTGAEIIHV
Which binding [3] does the source give for B1 here?
The binding was “no binding”.

What about the binding [4] of the same molecule?
The binding was “binds”.

B2: MARCH8 BiFC fusion (enzyme, UniProt Q5T0T0 1-291)
chain: MSMPLHQISAIPSQDAISARVYRSKTKEKEREEQNEKTLGHFMSHSSNISKAGSPPSASAPAPVSSFSRTSITPSSQDICRICHCEGDDESPLITPCHCTGSLHFVHQACLQQWIKSSDTRCCELCKYEFIMETKLKPLRKWEKLQMTSSERRKIMCSVTFHVIAITCVVWSLYVLIDRTAEEIKQGQATGILEWPFWTKLVVVAIGFTGGLLFMYVQCKVYVQLWKRLKAYNRVIYVQNCPETSKKNIFEKSPLTEPNFENKHGYGICHSDTNSSCCTEPEDTGAEIIHV
How did the binding [5] turn out when B2 was run?
The binding was “binds”.

Reference: paper PMC12702058
